The assay has as its target Flag-tagged full-length MASP-2 (human) (UniProt O00187). Briefly: co-IP.

Sequences of proteins named here, by UniProt entry; tags and fusion partners are left off. Residues count along the entry.
UniProt O00187, 16-686: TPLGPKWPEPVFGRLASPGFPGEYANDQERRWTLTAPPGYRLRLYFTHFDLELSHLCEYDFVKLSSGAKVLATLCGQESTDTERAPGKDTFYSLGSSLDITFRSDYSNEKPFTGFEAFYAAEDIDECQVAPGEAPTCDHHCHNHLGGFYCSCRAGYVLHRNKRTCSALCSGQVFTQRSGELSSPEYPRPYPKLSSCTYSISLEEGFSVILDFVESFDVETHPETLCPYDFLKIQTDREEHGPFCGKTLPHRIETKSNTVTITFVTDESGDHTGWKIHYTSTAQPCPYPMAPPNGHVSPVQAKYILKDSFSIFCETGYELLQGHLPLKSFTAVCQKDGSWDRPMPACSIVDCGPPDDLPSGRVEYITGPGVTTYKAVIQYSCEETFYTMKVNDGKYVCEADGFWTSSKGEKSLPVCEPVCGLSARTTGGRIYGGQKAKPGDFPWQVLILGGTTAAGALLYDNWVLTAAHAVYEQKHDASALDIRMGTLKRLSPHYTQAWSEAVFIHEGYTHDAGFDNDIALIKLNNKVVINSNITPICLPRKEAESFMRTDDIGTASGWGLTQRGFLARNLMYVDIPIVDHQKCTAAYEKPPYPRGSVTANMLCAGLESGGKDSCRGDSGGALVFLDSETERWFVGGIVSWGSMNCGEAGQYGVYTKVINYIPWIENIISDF

These are yes or no findings as the source states them, for the method shown. In cells and extracts the contact can be indirect. Some results given as binding are weak or reduced against the parent protein; the word gives no strength.

With “GFP-tagged N-terminal domain (residues 1-175) of the SARS-CoV N protein (from UniProt P59595 1-175) (domain or fragment)”, the binding result is “binds”.

The values are drawn from paper doi:10.1101/2020.03.29.20041962.
